These are yes or no findings as the source states them, for the method shown. Some results given as binding are weak or reduced against the parent protein; the word gives no strength. Tags and fused reporters may be left off the sequences shown.
T1: C-terminally encoded peptide receptor 2 (CEPR2), MbSUS fusion (Arabidopsis thaliana) (UniProt Q9C7T7)
T1 sequence: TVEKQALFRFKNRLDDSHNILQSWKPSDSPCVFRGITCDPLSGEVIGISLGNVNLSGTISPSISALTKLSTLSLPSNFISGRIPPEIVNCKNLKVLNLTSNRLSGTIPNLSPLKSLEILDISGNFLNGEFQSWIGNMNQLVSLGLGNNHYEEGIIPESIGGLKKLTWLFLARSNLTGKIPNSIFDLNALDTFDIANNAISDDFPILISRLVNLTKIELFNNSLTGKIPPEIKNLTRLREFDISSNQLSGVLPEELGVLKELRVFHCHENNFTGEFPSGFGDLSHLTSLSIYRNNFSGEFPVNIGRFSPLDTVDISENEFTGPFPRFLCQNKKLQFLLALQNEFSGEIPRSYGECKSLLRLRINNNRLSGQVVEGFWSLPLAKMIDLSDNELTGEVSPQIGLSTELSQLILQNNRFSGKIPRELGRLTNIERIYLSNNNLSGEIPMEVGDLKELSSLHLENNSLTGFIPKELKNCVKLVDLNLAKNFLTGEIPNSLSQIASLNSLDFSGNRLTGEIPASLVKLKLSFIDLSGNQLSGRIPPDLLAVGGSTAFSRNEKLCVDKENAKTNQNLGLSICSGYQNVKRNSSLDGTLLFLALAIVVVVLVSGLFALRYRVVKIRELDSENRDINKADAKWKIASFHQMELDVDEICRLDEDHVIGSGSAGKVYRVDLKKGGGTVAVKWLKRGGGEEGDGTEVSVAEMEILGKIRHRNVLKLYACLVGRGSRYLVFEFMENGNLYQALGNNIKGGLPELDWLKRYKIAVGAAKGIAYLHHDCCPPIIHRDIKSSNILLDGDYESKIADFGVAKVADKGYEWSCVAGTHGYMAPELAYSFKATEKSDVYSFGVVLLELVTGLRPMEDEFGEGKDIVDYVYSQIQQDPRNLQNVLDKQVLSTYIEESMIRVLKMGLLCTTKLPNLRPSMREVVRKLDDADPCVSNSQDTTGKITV


Molecular target: T1, C-terminally encoded peptide receptor 2 (CEPR2), MbSUS fusion (Arabidopsis thaliana)
Assay: two-hybrid

| binding | Binder |
| --- | --- |
| no binding | ABC transporter G25 (ABCG25), MbSUS fusion (protein, UniProt Q84TH5 1-662) MSAFDGVENQMNGPDSSPRLSQDPREPRSLLSSSCFPITLKFVDVCYRVKIHGMSNDSCNIKKLLGLKQKPSDETRSTEERTILSGVTGMISPGEFMAVLGPSGSGKSTLLNAVAGRLHGSNLTGKILINDGKITKQTLKRTGFVAQDDLLYPHLTVRETLVFVALLRLPRSLTRDVKLRAAESVISELGLTKCENTVVGNTFIRGISGGERKRVSIAHELLINPSLLVLDEPTSGLDATAALRLVQTLAGLAHGKGKTVVTSIHQPSSRVFQMFDTVLLLSEGKCLFVGKGRDAMAYFESVGFSPAFPMNPADFLLDLANGVCQTDGVTEREKPNVRQTLVTAYDTLLAPQVKTCIEVSHFPQDNARFVKTRVNGGGITTCIATWFSQLCILLHRLLKERRHESFDLLRIFQVVAASILCGLMWWHSDYRDVHDRLGLLFFISIFWGVLPSFNAVFTFPQERAIFTRERASGMYTLSSYFMAHVLGSLSMELVLPASFLTFTYWMVYLRPGIVPFLLTLSVLLLYVLASQGLGLALGAAIMDAKKASTIVTVTMLAFVLTGGYYVNKVPSGMVWMKYVSTTFYCYRLLVAIQYGSGEEILRMLGCDSKGKQGASAATSAGCRFVEEEVIGDVGMWTSVGVLFLMFFGYRVLAYLALRRIKH |
| no binding | ABA importer 4 (AIT4), MbSUS fusion (protein, UniProt Q9LSE8 1-521) MENDMEEKFEDWKGKEAIPGKHGGIRAASIVCVVVMMENIVFIANGFNFVKYFMGSMHYTPATAANMVTNFMGTSFLLTLFGGFIADSFVTHFTTFIVFCCIELMGLILLTFQAHNPKLLPEKDKTPSTLQSAILFTGLYAMAIGTGGLKASLPSHGGDQIDRRNPRLISRFFDWLYFSICSGCLLAVTVVLWIEEKKGWIWSFNISVGILATALCIFTVGLPFYRFKRPNGSPLKKIAIVIISAARNRNKSDLDEEMMRGLISIYKNNSHNKLKWIDKATLNKNISETEVEETRTFLGLLPIFGSTIVMSCCVAQLSTFSAQQGMLMNKKLFHSFEIPVPSLTAIPLIFMLLSIPLYEFFGKKISSGNNNRSSSFNLKRIGLGLALSSVSMAVSAIVEAKRKHEVVHNNFRISVLWLVFQYLMLSVSDMLTLGGMLEFFYREAPSNMKSISTALGWCSTALGFFLSTTLVEVTNAVTGRLGHQWLGGEDLNKTRLELFYVLLCVLNTLNLLNYIFWAKRY |
| no binding | ABA importer 2 (AIT2), MbSUS fusion (protein, UniProt Q8VYE4 1-567) MEVEMHGDVSKWEGYADWRNKAALRGRHGGMLAASFVLAVEILENLAFLANASNLVLYLKNFMHMSLARSSSEVTTFMATAFLLALLGGFLADAFFSTFVIFLISASIEFLGLILLTIQARRPSLMPPPCKSSAALRCEVVGGSKAAFLFVGLYLVSLGIGGIKGSLPSHGAEQFDEGTPKGRKQRSTFFNYYVFCLSCGALVAVTFVVWIEDNKGWEWGFGVSTISIFLSILVFLLGSRFYKNKIPRGSPLTTIFKVLLAASIVSCSSKTSSNHFTSREVQSEHEEKTPSQSLTNSLTCLNKAIEGKTHHIWLECTVQQVEDVKIVLKMLPIFGCTIMLNCCLAQLSTYSVHQAATMNRKIVNFNVPSASLPVFPVVFMLILAPTYDHLIIPFARKVTKSEIGITHLQRIGVGLVLSIVAMAVAALVELKRKQVAREAGLLDSEETLPITFLWIALQYLFLGSADLFTLAGLLEFFFTEAPSSMRSLATSLSWASLALGYYLSSVMVPIVNRVTKSAGQSPWLGEKLNRNRLDLFYWLMCVLSVVNFLHYLFWAKRYKYISTGSIS |
| binds | NRT1.2 (NPF4.6, AIT1), MbSUS fusion (protein, UniProt Q8H157 1-585) MEVEEEVSRWEGYADWRNRAAVKGRHGGMLAASFVLVVEILENLAYLANASNLVLYLREYMHMSPSKSANDVTNFMGTAFLLALLGGFLSDAFFSTFQIFLISASIEFLGLIILTIQARTPSLMPPSCDSPTCEEVSGSKAAMLFVGLYLVALGVGGIKGSLASHGAEQFDESTPKGRKQRSTFFNYFVFCLACGALVAVTFVVWLEDNKGWEWGFGVSTIAIFVSILIFLSGSRFYRNKIPCGSPLTTILKVLLAASVKCCSSGSSSNAVASMSVSPSNHCVSKGKKEVESQGELEKPRQEEALPPRAQLTNSLKVLNGAADEKPVHRLLECTVQQVEDVKIVLKMLPIFACTIMLNCCLAQLSTFSVQQAASMNTKIGSLKIPPASLPIFPVVFIMILAPIYDHLIIPFARKATKTETGVTHLQRIGVGLVLSILAMAVAALVEIKRKGVAKDSGLLDSKETLPVTFLWIALQYLFLGSADLFTLAGLLEYFFTEAPSSMRSLATSLSWASLAMGYYLSSVIVSIVNSITGSSGNTPWLRGKSINRYKLDYFYWLMCVLSAANFLHYLFWAMRYKYRSTGSRS |
| no binding | ABCG30, MbSUS fusion (protein, UniProt Q8GZ52 1-1400) MIQTGEEDEEKATSLEVEFASGNGVDDEEELRLQWATVERLPTFKRVTTALLARDEVSGKGRVIDVTRLEGAERRLLIEMLVKQIEDDNLRLLRKIRKRIDKVGIELPTVEVRFNNLSVEAECQVIHGKPIPTLWNTIKGLLSEFICSKKETKIGILKGVSGIVRPGRMTLLLGPPGCGKTTLLQALSGKFSDSVKVGGEVCYNGCSLSEFIPEKTSSYISQNDLHIPELSVRETLDFSACCQGIGSRMEIMKEISRMEKLQEIIPDPAVDAYMKATSVEGLKNNLQTDYILKILGLDICADTRVGDATRPGISGGEKRRLTTGELVVGPATTLFMDEISNGLDSSTTFQIVSCLQQLAHIAEATILISLLQPAPETFELFDDVILMGEGKIIYHAPRADICRFFEEFGFKCPERKGVADFLQEIMSKKDQEQYWCHRDKPYSYISVDSFINKFKESNLGLLLKEELSKPFNKSQTRKDGLCYKKYSLGKWEMLKACSRREFLLMKRNSFIYLFKSALLVFNALVTMTVFLQVGATTDSLHGNYLMGSLFTALFRLLADGLPELTLTISRLGVFCKQKDLYFYPAWAYAIPSIILKIPLSVLDSFIWTLLTYYVIGYSPEVKRFFLQFLILSTFNLSCVSMFRAIAAIFRTIIASTITGAISILVLSLFGGFVIPKSSMPAWLGWGFWLSPLSYAEIGLTANEFFSPRWSKVISSKTTAGEQMLDIRGLNFGRHSYWTAFGALVGFVLFFNALYVLALTYQNNPQRSRAIISHEKYSRPIEEDFKPCPKITSRAKTGKIILPFKPLTVTFQNVQYYIETPQGKTRQLLSDITGALKPGVLTSLMGVSGAGKTTLLDVLSGRKTRGIIKGEIKVGGYPKVQETFARVSGYCEQFDIHSPNITVEESLKYSAWLRLPYNIDSKTKNELVKEVLETVELDDIKDSVVGLPGISGLSIEQRKRLTIAVELVANPSIIFMDEPTTGLDARAAAIVMRAVKNVAETGRTVVCTIHQPSIDIFETFDELILMKNGGQLVYYGPPGQNSSKVIEYFESFSGLPKIQKNCNPATWILDITSKSAEEKLGIDFSQSYKDSTLYKQNKMVVEQLSSASLGSEALRFPSQFSQTAWVQLKACLWKQHYSYWRNPSHNITRIVFILLDSTLCGLLFWQKAEDINNQQDLISIFGSMYTLVVFPGMNNCAAVINFIAAERNVFYRERFARMYSSWAYSFSQVLIEVPYSLLQSLLCTIIVYPTIGYHMSVYKMFWSLYSIFCSLLIFNYSGMLMVALTPNIHMAVTLRSSFFSMLNLFAGFVIPKQKIPKWWIWMYYLSPTSWVLEGLLSSQYGDVDKEILVFGEKKRVSAFLEDYFGYKHESLAVVAFVLIAYPIIVATLFAFFMSKLSFQKK |
| no binding | ABA importer 3 (AIT3), MbSUS fusion (protein, UniProt Q9LSF0 1-515) MQIEMEEKFEDWRGKEAISGKHGGIKAAFIACVVETMENMVFLACSTNFMMYFTKSMNYSTPKAATMVTNFVGTSFLLTIFGGFVADSFLTRFAAFVLFGSIELLGLIMLTLQAHITKLQPQGGKKPSTPQSTVLFTGLYAIAIGVGGVKGSLPAHGGDQIGTRNQRLISGFFNWYFFSVCLGGFLAVTLMVWIEENIGWSSSFTISTAVLASAIFVFVAGCPMYRFKRPAGSPLTRIVNVFVSAARNRNRFVTDAEVVTQNHNSTDKSIHHNKFKFLNKAKLNNKISATQVEETRTFLALLPIFGSTIIMNCCVAQMGTFSVQQGMVTNRKLSRSFEIPVASLNAIPLLCMLSSLALYELFGKRILSNSERSSSFNLKRIGYGLALTSISMAVAAIVEVKRKHEAVHNNIKISVFWLELQFVMLSLSDMLTVGGMLEFFFRESPASMRSMSTALGWCSTAMGFFLSSVLVEVVNGITGWLRDDLNESRLELFYLVLCVLNTLNLFNYIFWAKRY |

Source: doi:10.1101/2020.02.18.953711 (bioRxiv, 2020)
